Data as given in patent publication CN108503707A.
No constants are given. Whether binding was seen depends on the method and setting. Some results given as binding are weak or reduced against the parent protein; the word gives no strength.

Sequences of proteins named here, by UniProt entry; tags and fusion partners are left off. Residues count along the entry.
UniProt P13664, residues 48-306: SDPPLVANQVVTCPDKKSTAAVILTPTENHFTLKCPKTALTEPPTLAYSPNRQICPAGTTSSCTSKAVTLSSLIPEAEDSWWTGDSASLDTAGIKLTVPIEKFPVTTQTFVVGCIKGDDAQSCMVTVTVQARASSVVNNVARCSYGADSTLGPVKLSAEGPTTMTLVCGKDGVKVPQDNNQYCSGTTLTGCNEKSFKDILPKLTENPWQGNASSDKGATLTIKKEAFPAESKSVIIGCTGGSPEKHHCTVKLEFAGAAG

Target: 弓形虫重组SAG1蛋白(表面膜抗原1) (Toxoplasma gondii) (UniProt P13664)
Assay: phage ELISA screen on coated SAG1

B1: 1号克隆株抗SAG1纳米抗体 (VHH)
VHH: HVQLVESGGGSVQAGGSLKLSCTASGYTSNNNCMAWYRQAPGKEPEGVAGIDSEGTTRYADSVKGRFTISKDNAKNTLYLQMNSLKPEDTGMYYCGAGPDRPARCQYDVWGQGTQVTVSS
B1 was tested, and the binding was “binds”.
